PubChem BioAssay AID1224828, NIAID | 2016

Purpose: 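Knock-downs that increase or decrease LPS-induced p65 nuclear translocation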 (primary screen)
Cells: mouse RAW264.7 G9 macrophage reporter cells (GFP-p65, Tnf promoter-mCherry)
Knock-down reagent: siRNA pool against mouse genes, 100 nM
Duration: 2 days siRNA transfection, then 40 min LPS before fixation
Challenge: LPS (Salmonella minnesota R595) at 10 ng/ml
Measured: 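Microscopy ratio of nuclear to perinuclear-ring GFP-p65 signal, scaled to the plate median; gene score is the average of two replicate robust z-scores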
Scale: p65 translocation robust z-score: higher = more nuclear NF-kappaB p65 after LPS than the plate median; nuclear/cytoplasmic p65 ratio: higher = more nuclear NF-kappaB p65
Active means: 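Called active when z exceeds 3.3 or falls under -1.56 (median of Tlr4 controls), giving activity score of at least 50; no calls for control wells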
Meaning of the calls: active = hit (p65 shift raised or lowered); inactive = no clear change
The deposit covers about 17,000 reagents; this is an unselected part. Of all reagents, 762 (4.5%) got an active call. 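Active calls include both raised and lowered p65 entry, mostly lowered; wells with fewer than 50 cells lack a z-score.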 Raw values vary from plate to plate and are shown uncorrected. Entries without a mark were called inactive. Reagent sequences are not shown.

With knock-down of Tamalin (GeneID 56149), the screen gave p65 translocation robust z-score -0.44; nuclear/cytoplasmic p65 ratio, rep 1 = 1.4; nuclear/cytoplasmic p65 ratio, rep 2 = 1.29; low cell count flag enough cells to score.
Against Zfp825 (GeneID 235956) the deposit lists p65 translocation robust z-score -1.78 (active); nuclear/cytoplasmic p65 ratio, rep 1 = 1.27; nuclear/cytoplasmic p65 ratio, rep 2 = 1.59; low cell count flag enough cells to score.
Ackr1 (GeneID 13349) gave p65 translocation robust z-score -0.7; nuclear/cytoplasmic p65 ratio, rep 1 = 1.39; nuclear/cytoplasmic p65 ratio, rep 2 = 1.5; low cell count flag enough cells to score.
Against Krt9 (GeneID 107656), the entry reads p65 translocation robust z-score -0.05; nuclear/cytoplasmic p65 ratio, rep 1 = 1.5; nuclear/cytoplasmic p65 ratio, rep 2 = 1.35; low cell count flag enough cells to score.
For Tma16 (GeneID 66282), the values are p65 translocation robust z-score 0.45; nuclear/cytoplasmic p65 ratio, rep 1 = 1.3; nuclear/cytoplasmic p65 ratio, rep 2 = 1.47; low cell count flag enough cells to score.
For Ripk3 (GeneID 56532), the values are p65 translocation robust z-score 0.69; nuclear/cytoplasmic p65 ratio, rep 1 = 1.77; nuclear/cytoplasmic p65 ratio, rep 2 = 1.49; low cell count flag enough cells to score.
Silencing of Txn2 (GeneID 56551) gave: nuclear/cytoplasmic p65 ratio, rep 1 = 1.34; nuclear/cytoplasmic p65 ratio, rep 2 = 1.1; low cell count flag fewer than 50 cells per well; well left out of scoring.
Klhl38 (GeneID 268807) showed p65 translocation robust z-score -0.55; nuclear/cytoplasmic p65 ratio, rep 1 = 1.32; nuclear/cytoplasmic p65 ratio, rep 2 = 1.5; low cell count flag enough cells to score.
Vmn1r148 (GeneID 81011) scored p65 translocation robust z-score 1.03; nuclear/cytoplasmic p65 ratio, rep 1 = 1.5; nuclear/cytoplasmic p65 ratio, rep 2 = 1.36; low cell count flag enough cells to score.
Silencing of D2hgdh (GeneID 98314) gave: p65 translocation robust z-score 0.51; nuclear/cytoplasmic p65 ratio, rep 1 = 1.66; nuclear/cytoplasmic p65 ratio, rep 2 = 1.79; low cell count flag enough cells to score.
With knock-down of Klk9 (GeneID 101533), the record shows nuclear/cytoplasmic p65 ratio, rep 1 = 1.31; nuclear/cytoplasmic p65 ratio, rep 2 = 1.39; low cell count flag fewer than 50 cells per well; well left out of scoring.
After knock-down of Gsdme (GeneID 54722) the results were p65 translocation robust z-score -1.64 (active); nuclear/cytoplasmic p65 ratio, rep 1 = 1.28; nuclear/cytoplasmic p65 ratio, rep 2 = 1.14; low cell count flag enough cells to score.
Silencing of Tcf12 (GeneID 21406) gave: p65 translocation robust z-score 0.3; nuclear/cytoplasmic p65 ratio, rep 1 = 1.5; nuclear/cytoplasmic p65 ratio, rep 2 = 1.62; low cell count flag enough cells to score.
Knock-down of Lmf1 (GeneID 76483) resulted in: nuclear/cytoplasmic p65 ratio, rep 1 = 2.02; nuclear/cytoplasmic p65 ratio, rep 2 = 0; low cell count flag fewer than 50 cells per well; well left out of scoring.
Iyd (GeneID 70337) showed p65 translocation robust z-score -0.03; nuclear/cytoplasmic p65 ratio, rep 1 = 1.52; nuclear/cytoplasmic p65 ratio, rep 2 = 1.46; low cell count flag enough cells to score.
For Drc11 (GeneID 74918) the deposit lists nuclear/cytoplasmic p65 ratio, rep 1 = 1.14; nuclear/cytoplasmic p65 ratio, rep 2 = 1.15; low cell count flag fewer than 50 cells per well; well left out of scoring.
Against LOC67527 (GeneID 67527), the values are p65 translocation robust z-score 0.36; nuclear/cytoplasmic p65 ratio, rep 1 = 1.55; nuclear/cytoplasmic p65 ratio, rep 2 = 1.53; low cell count flag enough cells to score.
Depletion of Homer2 (GeneID 26557) resulted in: p65 translocation robust z-score 1.67; nuclear/cytoplasmic p65 ratio, rep 1 = 1.6; nuclear/cytoplasmic p65 ratio, rep 2 = 1.83; low cell count flag enough cells to score.
After knock-down of Taf11 (GeneID 68776), the screen gave p65 translocation robust z-score 0.88; nuclear/cytoplasmic p65 ratio, rep 1 = 1.65; nuclear/cytoplasmic p65 ratio, rep 2 = 1.63; low cell count flag enough cells to score.
Against Pank3 (GeneID 211347) the deposit lists p65 translocation robust z-score -0.73; nuclear/cytoplasmic p65 ratio, rep 1 = 1.73; nuclear/cytoplasmic p65 ratio, rep 2 = 1.28; low cell count flag enough cells to score.
Dhx36 (GeneID 72162) scored p65 translocation robust z-score 1.96; nuclear/cytoplasmic p65 ratio, rep 1 = 1.92; nuclear/cytoplasmic p65 ratio, rep 2 = 1.77; low cell count flag enough cells to score.
